Source: patent US8076485B2, “Methylphenidate derivatives and uses of them” (priority 2005, dated 2011)
At least one structure is not confirmed: it was looked up by name or label, or the drawing left a doubt.

Test system: human umbilical vein endothelial cells (HUVECs)
Assay: HUVEC tube formation assay
Assay type: cell-based
Settings: 18 hours, 5% FCS, 30 μg Cpd II or MP in 1 ml, LY 294002 50 μM
Experimental: Passage 4 (i.e., […]) human umbilical vein endothelial cells (HUVECs), human source lot number 9713 (obtained from ATCC) in 1 ml of endothelial growth medium-2 (EGM-2) (obtained from Cambrex) were mixed with 30 μg of the compound of formula II (Cpd II) in endothelial basal medium-2 (EBM-2) (Cambrex) or 30 μg methylphenidate (MP) in EBM-2. Water (vehicle for the two test compounds) was used as a control, and the PI3 kinase inhibitor, LY 294002 (Sigma), at 50 μM, was included as a positive control. Then, the cells were seeded at 10,000 cells/well into the wells of a plate contained in a tube formation assay kit obtained from BD Biosciences, Rockville, Md. The wells of the plate contained an extracellular matrix protein gel. Fetal calf serum (FCS) (ATCC) was added to a final concentration of 5% to initiate tube formation. Then, the plates were incubated for 18 hours at 37° C. and 5% CO2. Following the incubation, the plates were photographed with a digital camera attached to an inverted microscope (Olympus IMT-2 set at a phase contrast (PC) of 10).
When endothelial cells are cultured on extracellular matrix protein gels in the presence of angiogenic signals, they arrange themselves into structures loosely resembling capillary blood vessels. […]

**Q.** Which “tube formation (branching and cellular interaction of endothelial cells)” value does the source give for `O=c1cc(N2CCOCC2)oc2c(-c3ccccc3)cccc12` [LY 294002, reference compound] here?
**A.** reduced the amount of branching and cellular interaction
